Laboratory results taken from US20210008166A1 (SPECTRUM PHARMACEUTICALS, published 2021).
Results are given in words; binding and its absence hold for the method and conditions named. Some results given as binding are weak or reduced against the parent protein; the word gives no strength.

Sequences of proteins named here, by UniProt entry; tags and fusion partners are left off. A change or cut given only in a name is not applied to a line headed by its entry. A line that says so, or that is headed by a name, gives the form on record, which may keep a tag or linker.
Pegfilgrastim (Neulasta) (P09919, form named): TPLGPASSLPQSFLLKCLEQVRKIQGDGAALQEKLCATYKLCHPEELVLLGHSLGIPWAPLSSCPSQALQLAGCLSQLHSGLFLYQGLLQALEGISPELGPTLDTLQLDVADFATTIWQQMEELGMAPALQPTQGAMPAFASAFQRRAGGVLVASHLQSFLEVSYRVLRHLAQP

Columns and labels:
[1] = target: T1, Chinese hamster ovary (CHO) cell-derived soluble recombinant human G-CSF receptor (R&D Systems, 381-050/CF) (human) (UniProt Q99062); experiment: SPR (discussion of the example)
T1 sequence (looked up): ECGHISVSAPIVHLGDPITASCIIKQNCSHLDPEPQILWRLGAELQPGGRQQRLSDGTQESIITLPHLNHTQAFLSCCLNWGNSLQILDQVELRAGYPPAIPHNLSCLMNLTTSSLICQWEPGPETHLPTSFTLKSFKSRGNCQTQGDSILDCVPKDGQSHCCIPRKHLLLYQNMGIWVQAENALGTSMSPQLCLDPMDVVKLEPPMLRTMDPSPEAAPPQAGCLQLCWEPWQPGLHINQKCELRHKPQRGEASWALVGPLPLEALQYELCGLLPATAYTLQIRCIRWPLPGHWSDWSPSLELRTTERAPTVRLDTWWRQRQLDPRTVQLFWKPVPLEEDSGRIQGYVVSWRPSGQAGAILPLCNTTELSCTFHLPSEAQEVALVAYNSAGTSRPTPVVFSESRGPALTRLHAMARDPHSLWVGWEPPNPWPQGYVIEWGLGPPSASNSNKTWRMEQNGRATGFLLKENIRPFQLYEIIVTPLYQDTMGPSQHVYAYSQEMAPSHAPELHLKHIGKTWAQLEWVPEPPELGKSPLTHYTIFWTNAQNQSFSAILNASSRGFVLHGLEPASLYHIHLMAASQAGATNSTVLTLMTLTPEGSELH

[2] = target: T1, Chinese hamster ovary (CHO) cell-derived soluble recombinant human G-CSF receptor (R&D Systems, 381-050/CF) (human); experiment: SPR (summary; target not given, G-CSF receptor from context)
[3] = target: T1, Chinese hamster ovary (CHO) cell-derived soluble recombinant human G-CSF receptor (R&D Systems, 381-050/CF) (human); experiment: SPR (discussion; target not given, G-CSF receptor from context)

- binding [1]: binds
- binding [2]: binds
- binding [3]: binds
Substance: Pegfilgrastim (Neulasta) (from UniProt P09919 31-204) (ligand)
